In all, about 320,000 compounds went through this assay and about 22,000 (6.9%) were called active. The inconclusive results got no clear call from the source; some entries with a clear call stand among them for comparison. The call rests on the fitted dose curve; in most records, active means well fitted inhibition curve with a large enough effect; inconclusive means small, poorly fitted or top-dose-only effect, or another doubt; inactive means no such curve, though single readings can be large or run the other way. A potency beside an inconclusive call is a rough fit, not a confirmed value. Some compounds were tested as several samples or in several runs, with calls that do not always agree.
experiment: Primary qHTS for delayed death inhibitors of the malarial parasite plastid, 96 hour incubation; details: P. falciparum luciferase reporter growth; series mostly up to 28.7 µM
Summary of the method: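 Two-generation exposure (96 h) targets delayed-death phenotype. Reporter parasites carrying integrated firefly luciferase, in red cells at 2% hematocrit and 0.05% parasitemia final, kept at 37 C, 5% CO2; luminescence loss indicates inhibition.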
Potency means the concentration at half of the fitted maximal effect.

Row | SMILES | Potency
1 | O=C(O)c1ccc(NC(=O)C2(c3ccccc3)CCCC2)cc1 | inactive
2 | O=C(CSc1ncccn1)NC(=O)Cc1ccccc1 | inactive
3 | O=C1CCC(C(=O)Nc2cccc(Oc3ccccc3)c2)=NN1 | inconclusive: 18.5 µM [inhibitor, single point]
4 | COc1ccc2nc(SC(C)C(=O)NC3CCCCC3)[nH]c2c1 (stereo not drawn) | inconclusive: 14.7 µM [inhibitor, partial curve, poor fit]
5 | C=CCNC(=S)Nc1ccc(Cl)c(S(=O)(=O)N2CCOCC2)c1 | inactive
6 | CSc1nc(NCc2ccccc2)c2c3c(sc2n1)CN(C)CC3 | inconclusive: 1.65 µM [inhibitor, full curve]
7 | CC(=O)Nc1ccc(NC(=O)c2ccc(C3SCC(=O)N3CCc3ccccc3)cc2)cc1 (stereo not drawn) | active: 11.7 µM
8 | Cc1cc(Cl)ccc1OCc1nnc(-c2ccccc2C)o1 | inactive
9 | COc1ccc(S(=O)(=O)N2CCN(C(=O)c3ccco3)CC2)cc1C(C)(C)C | inactive
10 | O=C(COC(=O)c1cc([N+](=O)[O-])ccc1N1CCOCC1)c1ccc(F)cc1 | inconclusive: 0.928 µM [inhibitor, full curve, poor fit]
11 | CC(NC(=O)c1cccs1)c1nnc(SCc2ccc(Cl)cc2Cl)n1C (stereo not drawn) | inconclusive: 18.5 µM [inhibitor, single point]
12 | O=C(COc1ccccc1Br)Nc1ccc(S(=O)(=O)N2CCCC2)cc1 | inconclusive: 2.94 µM [inhibitor, full curve, poor fit]
13 | O=C(CN1CCN(Cc2ccccc2)CC1)NNC(=O)c1ccccc1 | inconclusive: 13.1 µM [inhibitor, single point]
14 | CSc1ncccc1C(=O)N1CCCC(CCC(=O)NCc2ccc(F)c(F)c2)C1 (stereo not drawn) | inconclusive: 11.7 µM [inhibitor, single point]
15 | COc1nonc1NCn1nc(C)cc1C | inconclusive: 0.0047 µM [inhibitor, full curve, poor fit]
16 | O=C(CCCn1c(=O)c2ccccc2n(Cc2ccccc2)c1=O)NCc1ccco1 | inactive
17 | CCOC(=O)C1=C(c2ccccc2)NC(=S)NC1c1ccc(Cl)c([N+](=O)[O-])c1 (stereo not drawn) | inactive
18 | O=C(C1CC(=O)N(C2CCCC2)C1)N1CCN(c2ccccc2F)CC1 (stereo not drawn) | inconclusive: 10.4 µM [inhibitor, single point]
19 | Cc1ccc(NC(=O)CN2CCc3ccccc3C2)cc1 | inactive
20 | COc1ccc(C)cc1NC(=S)N1CCOCC1 | active: 10.4 µM
21 | Cc1ccc(C(=O)NC(O)C(Cl)Cl)cc1 (stereo not drawn) | inactive
22 | CC(=O)N1CCN(c2ccc(NC(=O)c3ccc(Cl)cc3)cc2)CC1 | inconclusive: 4.65 µM [inhibitor, partial curve, poor fit]
23 | COC(=O)c1ccc(S(=O)(=O)NCc2ccc(S(N)(=O)=O)cc2)n1C | inconclusive: 18.5 µM [inhibitor, single point]
24 | O=C(NCCN1C(=O)C2C3C=CC(C3)C2C1=O)Nc1cccnc1 (stereo not drawn) | inactive
25 | Cn1c(NC2CCCCC2)c(N=O)c(=O)n(C)c1=O | inconclusive: 18.5 µM [inhibitor, single point]

Row | SMILES | Potency
26 | O=C(Nc1c(C(=O)N2CCOCC2)cnn1-c1ccccc1)c1ccc(F)cc1 | inactive
27 | COCC1CCCCN1C(=O)c1ccc2oc(CCCc3ccccc3)nc2c1 (stereo not drawn) | inactive
28 | COc1cccc(C2c3[nH]c4ccccc4c3CCN2Cc2ncc[nH]2)c1 (stereo not drawn) | inactive
29 | N#CC(C(=O)c1ccccc1)=C1SCCS1 | inactive
30 | COc1ccc(C(=O)NCc2ccc(C(=O)NCC(OC)OC)cc2)cc1OC | inconclusive: 13.1 µM [inhibitor, single point]
31 | CSc1c2c(nc3ncnn13)CCC2 | active: 9.28 µM
32 | COc1ccccc1NC(=O)c1ccc(NC(=O)CN2CCN(C(=O)c3ccco3)CC2)cc1 | inconclusive: 13.1 µM [inhibitor, single point]
33 | CCCCC(=O)Nc1cccc(C(C)O)c1 (stereo not drawn) | inconclusive: 18.5 µM [inhibitor, single point]
34 | O=C(c1ccc2c(=O)n(Cc3ccc(Cl)cc3)c(=S)[nH]c2c1)N1CCCC1 | inconclusive: 18.5 µM [inhibitor, single point]
35 | COc1ccc(Br)cc1CNC(=O)Cc1cccs1 | inactive
36 | COc1ccc(CN2CCNC(=O)C2CC(=O)NC2CCCCCCC2)cc1OC (stereo not drawn) | inactive
37 | COc1ccc(C=C2c3ccccc3C(=O)c3ccccc32)c(OC)c1 | inconclusive: 18.5 µM [inhibitor, single point]
38 | CCn1c(O)c(N=NC(=O)CNC(=O)/C=C/c2ccccc2)c2ccccc21 | inconclusive: 18.5 µM [inhibitor, single point]
39 | COc1ccc(S(=O)(=O)NCc2ccncc2)cc1NC(=O)c1ccccc1 | inconclusive: 11.7 µM [inhibitor, partial curve]
40 | CC(=O)Nc1ccc(N/C=C/C(=O)c2ccccc2)cc1 | inactive
41 | NCc1ccc(S(N)(=O)=O)cc1 | active: 3.61 µM
42 | CC(C)[C@@H](N)C(=O)N/N=C/c1ccc2ncccc2c1 | inconclusive: 11.7 µM [inhibitor, single point]
43 | CC(C)OC(=O)CCCNc1ccc([N+](=O)[O-])cc1[N+](=O)[O-] | inconclusive: 10.4 µM [inhibitor, partial curve, poor fit]
44 | O=C(NC(=S)Nc1cccc2ncccc12)c1ccco1 | inconclusive: 14.7 µM [inhibitor, single point]
45 | CCCNC(=O)Cn1c(=O)oc2ccccc21 | inconclusive: 0.0738 µM [inhibitor, full curve, poor fit]
46 | COc1ccc(S(=O)(=O)N2CCC(NC(=O)c3cccc(F)c3)CC2)cc1 | inconclusive: 18.5 µM [inhibitor, single point]
47 | Cc1ccccc1CSCC(=O)c1c(N)n(C)c(=O)n(C)c1=O | inconclusive: 18.5 µM [inhibitor, single point]
48 | CCN(CC)S(=O)(=O)c1ccc(N2CCOCC2)c(NC(=O)C2CC2)c1 | inconclusive: 6.57 µM [inhibitor, partial curve, poor fit]
49 | COc1cccc(-c2c(-c3cc(OC)cc(OC)c3)n(C)c3ccc(-c4cnc(OC)nc4)cc23)c1 | inconclusive: 3.7 µM [inhibitor, partial curve, poor fit]
50 | O=C(N/N=C/c1c(O)n(Cc2ccc(F)cc2)c(=O)[nH]c1=O)c1ccccc1 | inconclusive: 13.1 µM [inhibitor, single point]

Filtered by structure, those above with a nitro group on carbon (3)
Row | SMILES | Potency
10 | O=C(COC(=O)c1cc([N+](=O)[O-])ccc1N1CCOCC1)c1ccc(F)cc1 | inconclusive: 0.928 µM [inhibitor, full curve, poor fit]
17 | CCOC(=O)C1=C(c2ccccc2)NC(=S)NC1c1ccc(Cl)c([N+](=O)[O-])c1 (stereo not drawn) | inactive
43 | CC(C)OC(=O)CCCNc1ccc([N+](=O)[O-])cc1[N+](=O)[O-] | inconclusive: 10.4 µM [inhibitor, partial curve, poor fit]

(cont.)

Row | SMILES | Potency
51 | O=C(Cn1ccnc1)c1ccc(O)c(O)c1 | inconclusive: 2.62 µM [inhibitor, full curve]
52 | CN(N)c1nc2ccccc2nc1C(F)(F)F | inactive
53 | O=C(CN1C(=O)c2ccccc2S1(=O)=O)NCc1ccc(F)cc1 | inconclusive: 13.1 µM [inhibitor, single point]
54 | CC(C)(C)c1ccc(NC(=S)NCc2cccs2)cc1 | inconclusive: 18.5 µM [inhibitor, single point]
55 | O=S(=O)(Nc1ncccn1)c1ccc(NC(=S)NCc2cccnc2)cc1 | inactive
56 | O=C1Nc2ccccc2N=C(c2ccccc2)C1Br (stereo not drawn) | inactive
57 | COC1C(OC(=O)c2ccc(C)[nH]2)C(O)C(Oc2ccc3c(O)c(NC(=O)c4ccc(O)c(CC=C(C)C)c4)c(=O)oc3c2Cl)OC1(C)C (stereo not drawn) | inconclusive: 10.4 µM [inhibitor, single point]
58 | COc1ccc(-c2cnc(SCC(=O)Nc3nc(C(C)(C)C)cs3)n2Cc2ccco2)cc1 | inconclusive: 9.28 µM [inhibitor, single point]
59 | O=C(CNC(=O)c1ccc(Br)o1)Nc1cccc(S(=O)(=O)N2CCOCC2)c1 | inconclusive: 9.28 µM [inhibitor, single point]
60 | CCC(=O)c1ccc(N2CCN(S(=O)(=O)c3ccccc3)CC2)c(F)c1 | active: 9.28 µM
61 | Oc1ccc2ccccc2c1CNc1cnc2ccccc2c1 | inconclusive: 18.5 µM [inhibitor, single point]
62 | CCOC(=O)c1c(C)[nH]c(=S)c(C#N)c1-c1ccccc1 | inconclusive: 3.29 µM [inhibitor, partial curve, poor fit]
63 | CCc1ccccc1NC(=S)N(CCN1CCCCCC1)Cc1ccco1 | inconclusive: 18.5 µM [inhibitor, single point]
64 | CCn1c(SCC(=O)NC2CCCCC2)nnc1-c1ccccn1 | inactive
65 | CN1C(=O)C2(C(C#N)=C(N)Oc3c2oc(CO)cc3=O)c2ccccc21 (stereo not drawn) | inconclusive: 10.4 µM [inhibitor, single point]
66 | COc1cc(S(=O)(=O)N2CCOCC2)ccc1N | inactive
67 | Cc1nc(NC(=O)c2ccc(Cl)cc2)nc2cc3c(cc12)OCO3 | inactive
68 | Cc1cccnc1CN1CCN(Cc2nc(C(c3ccccc3)c3ccccc3)no2)CC1 | inconclusive: 18.5 µM [inhibitor, partial curve, poor fit]
69 | Cc1ccccc1NC(=O)Cc1nc(CSc2nnc(C3CCCCC3)n2N)cs1 | active: 7.38 µM
70 | Cc1cc(C(=O)Cn2nc(C(=O)O)c3ccccc3c2=O)c(C)n1-c1ccc(OC(F)F)cc1 | inconclusive: 10.4 µM [inhibitor, single point]
71 | CC(C)n1c(-c2ccccc2)nc(=S)c2c1CCCC2 | inconclusive: 18.5 µM [inhibitor, single point]
72 | COc1ccc(CN(CCN)C2CC(C)N(C)CC2C)cc1 (stereo not drawn) | inconclusive: 11.7 µM [inhibitor, partial curve, poor fit]
73 | COC(=O)c1cccc(NC(=S)NCc2ccc(F)cc2)c1 | inconclusive: 18.5 µM [inhibitor, single point]

— PubChem BioAssay AID504834 (National Center for Advancing Translational Sciences (NCATS), 2011)
